In US20250040935A1, “FABRICATION OF RADIOPAQUE RESORBABLE HYDROGEL BEADS VIA MICROFLUIDICS FOR CATHETER EMBOLIZATION APPLICATIONS” (Saint Louis University, priority 2023, published 2025):
Some of these results come from one statement about several compounds together. At least one structure is not confirmed: it was looked up by name or label, or the drawing left a doubt.

Test: Bicalutamide and docetaxel bulk release from hydrogels
Type: physicochemical
Details: within the first 24 h; PEG hydrogels with and without BaSO4, both drugs in the same gel; sink 80:20 ethanol to DI water

Compound	mass released (burst release) [%]
CC(=O)O[C@@]12CO[C@@H]1C[C@H](O)[C@@]1(C)C(=O)[C@H](O)C3=C(C)[C@@H](OC(=O)[C@H](O)[C@@H](NC(=O)OC(C)(C)C)c4ccccc4)C[C@@](O)([C@@H](OC(=O)c4ccccc4)[C@H]21)C3(C)C [Docetaxel]	> 80
CC(O)(CS(=O)(=O)c1ccc(F)cc1)C(=O)Nc1ccc(C#N)c(C(F)(F)F)c1 (centres unmarked) [bicalutamide, Bicalutamide]	> 80
